In the supplement of paper PMC10849652:
The other results are listed elsewhere or left out.

Sequences of proteins named here, by UniProt entry; tags and fusion partners are left off. A change or cut given only in a name is not applied to a line headed by its entry.
UniProt P19397: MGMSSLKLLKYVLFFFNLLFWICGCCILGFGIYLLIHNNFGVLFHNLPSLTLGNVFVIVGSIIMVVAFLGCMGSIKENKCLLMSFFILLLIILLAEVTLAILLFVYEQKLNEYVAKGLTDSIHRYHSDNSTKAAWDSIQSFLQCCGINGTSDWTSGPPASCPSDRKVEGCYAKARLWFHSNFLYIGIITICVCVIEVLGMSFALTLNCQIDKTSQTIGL
UniProt P55210: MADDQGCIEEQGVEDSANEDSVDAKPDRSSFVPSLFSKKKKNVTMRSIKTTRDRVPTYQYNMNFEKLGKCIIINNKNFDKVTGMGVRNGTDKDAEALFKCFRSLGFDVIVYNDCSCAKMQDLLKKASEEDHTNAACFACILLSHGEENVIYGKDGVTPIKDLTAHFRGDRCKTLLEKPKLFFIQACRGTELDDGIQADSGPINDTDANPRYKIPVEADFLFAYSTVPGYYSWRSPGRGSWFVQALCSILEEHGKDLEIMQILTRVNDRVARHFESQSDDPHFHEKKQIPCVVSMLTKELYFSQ
UniProt Q9NQ75: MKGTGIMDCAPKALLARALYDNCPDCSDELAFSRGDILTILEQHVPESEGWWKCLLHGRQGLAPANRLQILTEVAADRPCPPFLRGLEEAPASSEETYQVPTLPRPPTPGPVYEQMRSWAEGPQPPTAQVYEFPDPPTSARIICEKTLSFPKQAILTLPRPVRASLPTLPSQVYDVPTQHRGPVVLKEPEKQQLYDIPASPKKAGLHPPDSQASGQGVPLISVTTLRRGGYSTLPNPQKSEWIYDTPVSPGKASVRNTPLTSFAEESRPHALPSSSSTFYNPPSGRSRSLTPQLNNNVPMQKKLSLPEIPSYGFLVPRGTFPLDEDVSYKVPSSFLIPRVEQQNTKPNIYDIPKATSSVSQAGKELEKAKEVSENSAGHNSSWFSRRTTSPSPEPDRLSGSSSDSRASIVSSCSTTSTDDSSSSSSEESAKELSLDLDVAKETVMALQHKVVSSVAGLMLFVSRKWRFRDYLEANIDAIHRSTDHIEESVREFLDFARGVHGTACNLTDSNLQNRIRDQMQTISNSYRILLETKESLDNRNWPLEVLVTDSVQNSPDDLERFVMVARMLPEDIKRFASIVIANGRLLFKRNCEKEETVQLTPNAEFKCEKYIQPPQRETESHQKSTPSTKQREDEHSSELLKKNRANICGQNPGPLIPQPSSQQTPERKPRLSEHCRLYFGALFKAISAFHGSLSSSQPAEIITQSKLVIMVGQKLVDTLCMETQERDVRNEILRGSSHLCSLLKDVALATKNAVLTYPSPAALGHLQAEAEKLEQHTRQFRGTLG
UniProt O60583: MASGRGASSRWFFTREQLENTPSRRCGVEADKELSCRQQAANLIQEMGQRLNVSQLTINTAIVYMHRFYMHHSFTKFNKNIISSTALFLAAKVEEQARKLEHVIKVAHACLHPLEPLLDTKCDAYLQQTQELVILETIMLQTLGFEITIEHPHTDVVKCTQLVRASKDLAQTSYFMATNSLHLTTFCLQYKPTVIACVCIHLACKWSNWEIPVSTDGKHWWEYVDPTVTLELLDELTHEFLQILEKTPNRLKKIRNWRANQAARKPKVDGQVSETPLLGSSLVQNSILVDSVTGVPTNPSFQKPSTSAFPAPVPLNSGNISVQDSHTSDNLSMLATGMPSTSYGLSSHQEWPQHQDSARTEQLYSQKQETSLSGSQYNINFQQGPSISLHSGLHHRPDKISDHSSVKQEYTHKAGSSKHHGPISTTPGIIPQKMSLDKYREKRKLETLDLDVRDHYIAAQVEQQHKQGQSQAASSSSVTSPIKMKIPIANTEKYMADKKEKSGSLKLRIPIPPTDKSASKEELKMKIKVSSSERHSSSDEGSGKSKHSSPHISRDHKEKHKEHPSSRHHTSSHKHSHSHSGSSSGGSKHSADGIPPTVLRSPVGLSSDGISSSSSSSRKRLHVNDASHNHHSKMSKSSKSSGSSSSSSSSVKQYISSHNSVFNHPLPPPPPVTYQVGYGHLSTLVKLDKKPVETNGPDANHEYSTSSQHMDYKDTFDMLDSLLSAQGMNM
UniProt Q9HC52: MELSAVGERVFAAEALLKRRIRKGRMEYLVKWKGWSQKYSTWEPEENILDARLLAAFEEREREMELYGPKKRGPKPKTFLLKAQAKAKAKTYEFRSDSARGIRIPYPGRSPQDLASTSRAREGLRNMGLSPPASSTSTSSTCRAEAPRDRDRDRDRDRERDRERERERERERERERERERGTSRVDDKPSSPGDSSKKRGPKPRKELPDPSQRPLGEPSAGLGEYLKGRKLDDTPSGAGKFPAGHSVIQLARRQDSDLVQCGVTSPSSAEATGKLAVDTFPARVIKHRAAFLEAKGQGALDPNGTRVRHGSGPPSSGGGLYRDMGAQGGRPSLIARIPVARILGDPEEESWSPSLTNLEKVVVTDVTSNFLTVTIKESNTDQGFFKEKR
UniProt Q8IVM0: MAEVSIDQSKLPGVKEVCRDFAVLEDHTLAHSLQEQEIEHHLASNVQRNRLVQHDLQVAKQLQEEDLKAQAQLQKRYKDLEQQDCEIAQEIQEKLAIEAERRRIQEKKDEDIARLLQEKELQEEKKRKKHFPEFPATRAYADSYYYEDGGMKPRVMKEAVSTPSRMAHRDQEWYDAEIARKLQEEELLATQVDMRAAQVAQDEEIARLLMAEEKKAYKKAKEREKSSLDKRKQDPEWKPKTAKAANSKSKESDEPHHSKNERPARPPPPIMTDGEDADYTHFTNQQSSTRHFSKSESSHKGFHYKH
UniProt P13994: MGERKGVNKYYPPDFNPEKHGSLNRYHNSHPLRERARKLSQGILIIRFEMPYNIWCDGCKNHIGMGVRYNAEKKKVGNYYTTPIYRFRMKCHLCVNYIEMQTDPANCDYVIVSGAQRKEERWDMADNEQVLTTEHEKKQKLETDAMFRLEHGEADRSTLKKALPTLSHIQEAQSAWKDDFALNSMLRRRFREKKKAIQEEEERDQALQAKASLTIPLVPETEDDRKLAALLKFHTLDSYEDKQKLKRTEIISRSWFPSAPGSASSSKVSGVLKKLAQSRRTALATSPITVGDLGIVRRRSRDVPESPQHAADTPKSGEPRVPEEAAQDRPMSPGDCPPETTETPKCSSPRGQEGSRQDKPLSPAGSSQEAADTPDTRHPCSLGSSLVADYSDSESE
UniProt P30281: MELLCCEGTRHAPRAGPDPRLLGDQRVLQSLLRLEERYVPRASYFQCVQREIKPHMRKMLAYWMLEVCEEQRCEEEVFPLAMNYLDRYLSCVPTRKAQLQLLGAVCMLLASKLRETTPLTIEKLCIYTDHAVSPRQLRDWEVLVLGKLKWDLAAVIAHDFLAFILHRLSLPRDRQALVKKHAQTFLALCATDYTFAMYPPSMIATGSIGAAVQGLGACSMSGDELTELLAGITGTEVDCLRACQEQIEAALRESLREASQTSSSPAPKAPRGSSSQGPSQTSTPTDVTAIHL
UniProt Q9P0B6: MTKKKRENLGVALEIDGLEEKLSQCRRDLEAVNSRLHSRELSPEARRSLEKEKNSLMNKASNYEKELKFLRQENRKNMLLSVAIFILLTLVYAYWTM
UniProt P16070: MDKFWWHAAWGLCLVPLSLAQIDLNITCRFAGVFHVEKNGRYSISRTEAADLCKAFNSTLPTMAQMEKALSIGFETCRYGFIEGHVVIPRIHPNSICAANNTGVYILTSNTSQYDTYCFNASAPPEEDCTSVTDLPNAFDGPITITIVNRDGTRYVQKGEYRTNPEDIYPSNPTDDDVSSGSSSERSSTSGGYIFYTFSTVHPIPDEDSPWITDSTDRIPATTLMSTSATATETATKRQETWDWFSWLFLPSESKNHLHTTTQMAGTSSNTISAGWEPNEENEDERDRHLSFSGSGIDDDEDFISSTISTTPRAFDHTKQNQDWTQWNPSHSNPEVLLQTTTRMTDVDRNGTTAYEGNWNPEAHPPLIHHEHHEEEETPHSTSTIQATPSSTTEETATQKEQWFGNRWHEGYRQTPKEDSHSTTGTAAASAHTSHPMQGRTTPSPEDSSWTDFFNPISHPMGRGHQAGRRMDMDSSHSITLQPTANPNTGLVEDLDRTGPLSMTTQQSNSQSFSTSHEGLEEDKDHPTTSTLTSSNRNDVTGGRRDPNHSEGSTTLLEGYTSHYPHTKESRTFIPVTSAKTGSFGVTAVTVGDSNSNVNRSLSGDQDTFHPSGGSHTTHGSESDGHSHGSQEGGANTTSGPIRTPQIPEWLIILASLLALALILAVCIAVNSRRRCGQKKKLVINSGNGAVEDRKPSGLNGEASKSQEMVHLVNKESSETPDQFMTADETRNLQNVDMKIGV
UniProt Q9H0W5: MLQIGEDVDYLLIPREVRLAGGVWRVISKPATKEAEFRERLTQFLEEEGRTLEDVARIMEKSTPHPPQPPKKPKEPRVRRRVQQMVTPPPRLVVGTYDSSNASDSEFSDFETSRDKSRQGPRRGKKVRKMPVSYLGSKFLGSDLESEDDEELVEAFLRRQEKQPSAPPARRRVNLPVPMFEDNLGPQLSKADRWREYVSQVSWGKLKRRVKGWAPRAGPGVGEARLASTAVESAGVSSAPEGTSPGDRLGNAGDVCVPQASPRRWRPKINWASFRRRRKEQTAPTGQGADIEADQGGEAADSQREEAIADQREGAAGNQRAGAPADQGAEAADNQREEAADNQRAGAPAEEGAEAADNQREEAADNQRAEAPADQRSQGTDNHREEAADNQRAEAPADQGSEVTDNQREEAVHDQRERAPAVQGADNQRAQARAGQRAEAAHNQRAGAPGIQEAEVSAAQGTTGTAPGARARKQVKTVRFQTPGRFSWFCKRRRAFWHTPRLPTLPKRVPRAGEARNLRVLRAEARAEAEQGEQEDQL
UniProt Q04900: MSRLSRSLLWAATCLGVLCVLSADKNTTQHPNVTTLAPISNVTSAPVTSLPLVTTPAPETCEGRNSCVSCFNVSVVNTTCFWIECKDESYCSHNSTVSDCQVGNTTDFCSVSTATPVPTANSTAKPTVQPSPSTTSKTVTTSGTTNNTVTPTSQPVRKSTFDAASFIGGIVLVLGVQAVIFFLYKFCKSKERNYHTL
UniProt P34810: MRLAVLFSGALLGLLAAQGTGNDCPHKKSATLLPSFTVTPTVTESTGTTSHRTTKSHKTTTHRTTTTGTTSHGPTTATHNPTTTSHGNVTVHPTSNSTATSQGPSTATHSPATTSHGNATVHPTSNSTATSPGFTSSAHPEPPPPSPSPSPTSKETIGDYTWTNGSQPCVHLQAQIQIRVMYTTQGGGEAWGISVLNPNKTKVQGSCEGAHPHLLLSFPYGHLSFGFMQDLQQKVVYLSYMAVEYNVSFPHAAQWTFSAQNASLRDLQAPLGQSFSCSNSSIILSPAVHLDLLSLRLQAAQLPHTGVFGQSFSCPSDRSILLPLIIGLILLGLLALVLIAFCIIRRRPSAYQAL
UniProt A2RUB6: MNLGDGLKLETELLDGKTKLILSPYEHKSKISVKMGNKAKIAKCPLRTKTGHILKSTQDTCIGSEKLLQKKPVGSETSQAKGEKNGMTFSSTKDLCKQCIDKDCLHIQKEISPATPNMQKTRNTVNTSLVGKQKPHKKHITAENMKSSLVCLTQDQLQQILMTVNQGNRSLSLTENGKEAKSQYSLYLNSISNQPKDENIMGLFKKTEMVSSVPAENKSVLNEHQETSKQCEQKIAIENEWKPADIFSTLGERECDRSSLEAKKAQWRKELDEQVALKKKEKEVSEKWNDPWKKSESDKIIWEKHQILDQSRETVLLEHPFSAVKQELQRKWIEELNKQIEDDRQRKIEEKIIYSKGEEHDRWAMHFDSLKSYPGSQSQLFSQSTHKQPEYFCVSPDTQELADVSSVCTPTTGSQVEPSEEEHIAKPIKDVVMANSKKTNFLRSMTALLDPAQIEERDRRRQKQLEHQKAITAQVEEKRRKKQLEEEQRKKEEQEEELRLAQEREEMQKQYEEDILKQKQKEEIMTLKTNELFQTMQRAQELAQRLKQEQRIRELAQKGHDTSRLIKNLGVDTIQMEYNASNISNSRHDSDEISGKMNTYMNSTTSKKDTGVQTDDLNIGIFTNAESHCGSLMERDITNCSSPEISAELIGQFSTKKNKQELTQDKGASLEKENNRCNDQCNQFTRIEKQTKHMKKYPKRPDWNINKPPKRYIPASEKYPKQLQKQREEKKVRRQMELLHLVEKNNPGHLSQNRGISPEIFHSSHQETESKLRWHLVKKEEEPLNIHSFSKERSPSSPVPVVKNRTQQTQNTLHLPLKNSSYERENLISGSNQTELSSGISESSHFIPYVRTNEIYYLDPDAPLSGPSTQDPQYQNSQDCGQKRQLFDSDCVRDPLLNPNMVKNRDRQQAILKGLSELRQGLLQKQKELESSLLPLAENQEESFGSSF
UniProt P25942, whole entry, looked up: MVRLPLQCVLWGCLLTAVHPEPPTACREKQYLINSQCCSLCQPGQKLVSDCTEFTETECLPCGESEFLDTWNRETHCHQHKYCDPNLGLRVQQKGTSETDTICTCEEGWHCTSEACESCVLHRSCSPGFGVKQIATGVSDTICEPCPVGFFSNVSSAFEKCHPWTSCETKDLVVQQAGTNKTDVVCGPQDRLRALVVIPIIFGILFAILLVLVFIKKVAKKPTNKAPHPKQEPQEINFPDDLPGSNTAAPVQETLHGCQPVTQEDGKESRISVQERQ

Tests used:
Test in all cases: log2 fold change, soluble protein after heating vs DMSO (PISA); higher = thermal stabilisation; K562 lysate, 10 uM; active = over 0.2 and 3.5 SD of the protein, either way, in both replicates (recomputed)
vemurafenib = compound: CCCS(=O)(=O)Nc1ccc(F)c(C(=O)c2c[nH]c3ncc(-c4ccc(Cl)cc4)cc23)c1F [vemurafenib]
Procedure, shortened: (§1)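 Following dounce homogenisation of K562 pellets in PBS pH 7.4 with 1 mM MgCl2, crude extract at 1 mg/mL protein was incubated for 30 min with 10 μM compound. Aliquots were then heated for 3 min over 48°C-58°C and pooled, NP-40 was added to 0.5% at 4°C, and soluble protein was recovered as the supernatant at 21,000xg for 90 min. Channel-sum-equalised TMTpro 16plex LC-MS/MS quantified this protein. Each value, from duplicates, is a log-two fold change in thermal stability relative to solvent controls.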

[1] = compound: CCCS(=O)(=O)Nc1ccc(F)c(C(=O)c2c[nH]c3ncc(Cl)cc23)c1F
Procedure, shortened: as §1

barasertib = compound: CCN(CCCOc1ccc2c(Nc3cc(CC(=O)Nc4cccc(F)c4)[nH]n3)ncnc2c1)CCOP(=O)(O)O [barasertib]
Procedure, shortened: as §1

[2] = compound: CC[C@@H]1C(=O)N(C)c2cnc(Nc3ccc(C(=O)NC4CCN(C)CC4)cc3OC)nc2N1C1CCCC1
Procedure, shortened: as §1

volasertib = compound: CC[C@@H]1C(=O)N(C)c2cnc(Nc3ccc(C(=O)N[C@H]4CC[C@H](N5CCN(CC6CC6)CC5)CC4)cc3OC)nc2N1C(C)C [volasertib]
Procedure, shortened: as §1

[3] = compound: CCn1c(C(=O)N(C2CC2)C2CC2)cc2c3c(ncn3C)c(Nc3cc(C)n(C)n3)nc21
Procedure, shortened: as §1

[4] = compound: CCn1cc(-c2ccnc3[nH]c(-c4cccc(CN(C)C)c4)cc23)c(-c2ccc(NC(=O)N(C)C)cc2)n1
Procedure, shortened: as §1

[5] = compound: CN1CCC(CNc2ccc3ncc(-c4cccc(OC(F)(F)F)c4)n3n2)CC1
Procedure, shortened: as §1

sotrastaurin = compound: CN1CCN(c2nc(C3=C(c4c[nH]c5ccccc45)C(=O)NC3=O)c3ccccc3n2)CC1 [sotrastaurin]
Procedure, shortened: as §1

saracatinib = compound: CN1CCN(CCOc2cc(OC3CCOCC3)c3c(Nc4c(Cl)ccc5c4OCO5)ncnc3c2)CC1 [saracatinib]
Procedure, shortened: as §1

Measured: log2 fold change

CD53 (UniProt P19397)
inactive: vemurafenib 0.05 | [1] -0.073 | barasertib 0.027 | [2] -0.035 | volasertib -0.033 | [3] 0.004 | [4] -0.145 | [5] 0.095 | sotrastaurin 0.053

CCP110 (UniProt O43303)
inactive: vemurafenib -0.202 | barasertib 0.07 | [2] -0.141 | [3] -0.022 | saracatinib -0.06 | sotrastaurin 0.005

CASP7 isoform 3 (UniProt P55210)
inactive: [1] -0.117 | barasertib 0.059 | [2] -0.148 | volasertib -0.049 | [3] -0.119 | saracatinib 0.056 | sotrastaurin -0.091

CCDC127 (UniProt Q96BQ5)
inactive: [1] -0.002 | barasertib 0.058 | [2] -0.109 | volasertib -0.025 | [3] 0.034 | [4] -0.143 | [5] 0.121 | saracatinib 0.035 | sotrastaurin 0.026

CCDC13 (UniProt Q8IYE1)
inactive: vemurafenib 0.196 | [1] 0 | barasertib 0.731 | [2] 0.305 | volasertib 0.017 | [4] 0.389 | [5] -0.013 | saracatinib -0.093 | sotrastaurin 0.126

CCT3 (UniProt E9PM09)
inactive: vemurafenib 0.225 | [1] -0.166 | barasertib 0.08 | [2] 0.051 | volasertib 0.054 | [3] 0.092 | saracatinib -0.124

CASS4 (UniProt Q9NQ75)
inactive: vemurafenib 0.118 | [2] 0.052 | [3] 0.023 | [4] 0.084 | [5] 0.097 | saracatinib 0.073 | sotrastaurin -0.099

CCDC136 isoform 4 (UniProt Q96JN2)
inactive: vemurafenib -0.017 | [2] 0.07 | [4] 0.082 | [5] -0.027 | saracatinib 0.168 | sotrastaurin -0.018

CBFB (UniProt Q13951)
inactive: [1] 0.057 | barasertib 0.045 | [2] -0.015 | volasertib 0.013 | [3] 0.041 | [4] 0.028 | [5] -0.05 | saracatinib 0.009 | sotrastaurin -0.038

CCT6B isoform 3 (UniProt Q92526)
inactive: vemurafenib 0.007 | [1] 0.01 | volasertib 0.122 | saracatinib 0.082

CCNT2 (UniProt O60583)
inactive: vemurafenib -0.082 | [1] 0.124 | barasertib -0.008 | [2] 0.05 | volasertib -0.128 | [3] 0.176 | saracatinib 0.049 | sotrastaurin -0.191

CASP10 isoform 4 (UniProt Q92851)
inactive: vemurafenib -0.003 | [1] -0.029 | barasertib -0.009 | [2] -0.041 | volasertib -0.027 | [3] -0.02 | [4] 0.002 | [5] 0.06 | saracatinib -0.008 | sotrastaurin -0.018

CCDC9, A0A2R8Y4Z8
inactive: [1] 0.072 | barasertib 0.064 | volasertib 0.011 | [3] 0.022 | saracatinib -0.127 | sotrastaurin -0.099

CD80 (UniProt P33681)
inactive: vemurafenib 0.115 | [1] -0.113 | [2] 0.063 | volasertib -0.001 | [3] -0.011 | [4] 0.239 | [5] -0.177 | saracatinib -0.069 | sotrastaurin 0.032

CBX8 (UniProt Q9HC52)
inactive: vemurafenib -0.101 | [2] 0.419 | sotrastaurin -0.05

CCDC50 (UniProt Q8IVM0)
inactive: [1] 0.183 | barasertib -0.061 | [2] 0.209 | volasertib 0.063 | [3] -0.051 | sotrastaurin -0.127

CASC1 (UniProt Q6TDU7)
inactive: barasertib 1.04 | [3] -0.217 | [4] 0.034 | [5] 0.006

CCDC130 (UniProt P13994)
inactive: barasertib 0.045 | [2] 0.036 | [3] -0.027 | sotrastaurin 0.147

CCND3 (UniProt P30281)
inactive: barasertib 0.014 | [2] -0.056 | [3] -0.112 | [4] -0.116 | [5] 0.075 | saracatinib 0.086 | sotrastaurin 0.016

CASP8 isoform 4 (UniProt Q14790)
inactive: barasertib 0.15 | saracatinib 0.071

CCDC167 (UniProt Q9P0B6)
inactive: barasertib -0.316 | sotrastaurin -0.086

CD44 (UniProt P16070)
inactive: [2] -0.03 | [4] 0.117 | [5] 0.039

CAV2 (UniProt P51636)
inactive: [1] -0.094 | volasertib -0.033 | [3] 0.117 | [4] -0.157 | [5] 0.05 | saracatinib 0.07 | sotrastaurin -0.11

CD33 (UniProt P20138)
inactive: [1] -0.116 | volasertib -0.08 | [4] 0.053 | [5] -0.04 | saracatinib 0.038 | sotrastaurin 0.17

CCDC8 (UniProt Q9H0W5)
inactive: saracatinib -0.047

CASP10 isoform 2 (UniProt Q92851)
inactive: [2] -0.166 | [3] 0.187 | saracatinib 0.004

Reprinted from the results shown (eleven entries):
CBX8 (UniProt Q9HC52)
inactive: vemurafenib -0.101 | [2] 0.419 | sotrastaurin -0.05

CCDC50 (UniProt Q8IVM0)
inactive: [1] 0.183 | barasertib -0.061 | [2] 0.209 | volasertib 0.063 | [3] -0.051 | sotrastaurin -0.127

CASC1 (UniProt Q6TDU7)
inactive: barasertib 1.04 | [3] -0.217 | [4] 0.034 | [5] 0.006

CCDC130 (UniProt P13994)
inactive: barasertib 0.045 | [2] 0.036 | [3] -0.027 | sotrastaurin 0.147

CCND3 (UniProt P30281)
inactive: barasertib 0.014 | [2] -0.056 | [3] -0.112 | [4] -0.116 | [5] 0.075 | saracatinib 0.086 | sotrastaurin 0.016

CASP8 isoform 4 (UniProt Q14790)
inactive: barasertib 0.15 | saracatinib 0.071

CCDC167 (UniProt Q9P0B6)
inactive: barasertib -0.316 | sotrastaurin -0.086

CD44 (UniProt P16070)
inactive: [2] -0.03 | [4] 0.117 | [5] 0.039

CAV2 (UniProt P51636)
inactive: [1] -0.094 | volasertib -0.033 | [3] 0.117 | [4] -0.157 | [5] 0.05 | saracatinib 0.07 | sotrastaurin -0.11

CD33 (UniProt P20138)
inactive: [1] -0.116 | volasertib -0.08 | [4] 0.053 | [5] -0.04 | saracatinib 0.038 | sotrastaurin 0.17

CCDC8 (UniProt Q9H0W5)
inactive: saracatinib -0.047

The list continues:

CD109 (UniProt Q6YHK3)
inactive: [4] 0.205 | [5] -0.384

CCDC126 (UniProt Q96EE4)
inactive: sotrastaurin 0.135

CD164 (UniProt Q04900)
inactive: sotrastaurin 0.112

CD68 (UniProt P34810)
inactive: [2] -0.282 | [4] -0.025 | [5] -0.011 | sotrastaurin -0.157

CCDC66 (UniProt A2RUB6)
inactive: [2] -0.152 | [3] -0.015

CCDC71L (UniProt Q8N9Z2)
inactive: [4] -0.132 | [5] 0.054 | saracatinib 0.167

CCT8 (UniProt H7C4C8)
inactive: [3] -0.341 | sotrastaurin 0.068

CD69 (UniProt Q07108)
inactive: sotrastaurin 0.221

CD79B isoform 3 (UniProt P40259)
inactive: saracatinib -1.38

CARHSP1 (UniProt H3BNU9)
inactive: [1] 0.032 | barasertib 0.246 | volasertib -0.161 | [4] 0.16 | [5] -0.522

CD40 (UniProt P25942)
inactive: [4] -0.389 | [5] -0.196
